# Measurements reported in US20240197897A1, “HETEROTANDEM BICYCLIC PEPTIDE COMPLEXES” (Bicycle Tx Limited, priority 2021, published 2024).
# At least one compound was matched to its structure with a doubt left. Starred links: 1 amine or outer side, 2 acyl side, 3 side chain; linkers in the order of their positions; H or OH if unused. Positions of bridges follow the written chain, without caps; N, C: chain ends. Non-standard residues stand in square brackets, D forms with d. Residues, ends and D or L forms follow the SMILES beside them. Chains are numbered I, II in the order given. X3 = O=C(CCOCCOCCOCCOCCOCCOCCOCCOCCOCCOCCOCCOCCOCCOCCOCCOCCOCCOCCOCCOCCOCCOCCOCCOCCn1cc(CCC(=O)[*:2])nn1)[*:1]; TATA = O=C(CC[*:1])N1CN(C(=O)CC[*:2])CN(C(=O)CC[*:3])C1; Hyp = O=C(O)[C@@H]1C[C@@H](O)CN1; hArg = N=C(N)NCCCC[C@H](N)C(=O)O; Cba = N[C@@H](CC1CCC1)C(=O)O
# System: HT1080-luc cells
# Assay: NK cytotoxicity assay (NK:HT1080-luc co-culture, luciferase readout)
# Format: cell-based, human
# Experimental: Heterotandem bicyclic peptide complexes were evaluated for NK functional readouts (cytotoxicity and cytokine secretion) in NK-tumor cell line co-cultures.
# NK cells were isolated using a negative isolation kit (STEMCELL™ Technologies 17955) from the total PBMC population purified from whole blood. NK cell pellet was then resuspended in DMEM medium (Corning™ 10-013-CV) with 10% heat-inactivated fetal bovine serum (FBS; Corning® 35-011-CV), 10 mM HEPES (Gibco™ 15-630-080), and 1% Penicillin Streptomycin (Corning™ 30-002-CI), and 50 IU/mL human IL-2 (Miltenyi Biotec® 130-097-748), at a concentration of 4×10^5 cells/mL. For the NK cell cytotoxicity assays, 50 μL (2×10^4) of cell suspension was plated in the 96-well plate (Grenier® Bio One™ 655090) containing 50 μl (4×10^3) HT1080-luc cells (ATCC® CCL-121-luc2) in DMEM (Gibco™ 11875-093; with L-glutamine) with 10% heat-inactivated fetal bovine serum (FBS; Corning® 35-011-CV), 10 mM HEPES (Gibco™ 15-630-080), and 1% Penicillin Streptomycin (Corning™ 30-002-CI). […] The plates were then incubated for 24 hours at 37° C., 5% CO2. Post-incubation, plates was centrifuged at 250×g for 5 minutes and 100 μl supernatant discarded. Samples were then incubated 10 minutes with 50 μl Bright-Glo™ Luciferase Assay system (Promega™ E2620). Luminescence upon excitation at 570 nm was read using a CLARIOstar® plate-reader with MARS Data Analysis Software™. […]
Compound,"EC50 (NK:HT1080-luc co-culture, 24 hours, four-parameter logistic regression, FIGS. 2-4, 6-8, 10, read-out: EC50 NK cytotoxicity (tumor cell killing))","effect on tumor cell killing by NK cells, in words (in comparison to NK:HT1080-luc co-culture without heterotandem complex (NK-TICA))"
CC(C)C[C@@H]1NC(=O)[C@H](Cc2ccc(O)cc2)NC(=O)[C@H](CC(=O)O)NC(=O)[C@@H]2CCCN2C(=O)[C@H](CC(C)C)NC(=O)[C@H](Cc2ccc(O)cc2)NC(=O)[C@@H](NC(=O)[C@H](C)N)CSCCC(=O)N2CN3CN(C2)C(=O)CCSC[C@@H](C(=O)N[C@@H](C)C(=O)N[C@H](CCCCNC(=O)CCc2cn(CCOCCOCCOCCN(CCOCCOCCOCCC(=O)N[C@@H](C)C(=O)N[C@@H](CCCCNC(=N)N)C(=O)N[C@@H](CC(=O)O)C(=O)N[C@H]4CSCCC(=O)N5CN6CN(C5)C(=O)CCSC[C@H](NC(=O)[C@H](CC(C)C)NC(=O)[C@@H]5CCCN5C(=O)[C@H](CC(N)=O)NC(=O)[C@H](C(C)C)NC(=O)[C@H](CC(C)C)NC(=O)[C@@H]5C[C@@H](O)CN5C4=O)C(=O)N[C@@H](CC(C)C)C(=O)N[C@@H](Cc4c[nH]cn4)C(=O)N4CCC[C@H]4C(=O)N[C@H](CC(=O)O)C(=O)N[C@@H](Cc4c[nH]c5ccccc45)C(=O)N[C@@H](CCCCNC(=N)N)C(=O)N[C@H](C(N)=O)CSCCC6=O)CCOCCOCCOCCn4cc(CCC(=O)NCCCC[C@@H](NC(=O)[C@H](C)NC(=O)[C@@H]5CSCCC(=O)N6CN7CN(C6)C(=O)CCSC[C@H](NC(=O)[C@H](CC(C)C)NC(=O)[C@H](Cc6ccc(O)cc6)NC(=O)[C@H](CC(=O)O)NC(=O)[C@@H]6CCCN6C(=O)[C@H](CC(C)C)NC(=O)[C@H](Cc6ccc(O)cc6)NC(=O)[C@@H](NC(=O)[C@H](C)N)CSCCC7=O)C(=O)NCC(=O)N[C@@H](CC(=O)O)C(=O)N[C@@H](CCC(=O)O)C(=O)N[C@@H](Cc6ccc(O)cc6)C(=O)N5)C(N)=O)nn4)nn2)C(N)=O)NC(=O)[C@H](Cc2ccc(O)cc2)NC(=O)[C@H](CCC(=O)O)NC(=O)[C@H](CC(=O)O)NC(=O)CNC(=O)[C@H](CSCCC3=O)NC1=O [BCY15664],0.016 nM,
"CC(=O)N[C@H]1CSCCC(=O)N2CN3CN(C2)C(=O)CCSC[C@H](NC(=O)[C@H](CC(C)C)NC(=O)[C@H](Cc2ccc(O)cc2)NC(=O)[C@H](CC(=O)O)NC(=O)[C@@H]2CCCN2C(=O)[C@H](CC2CCC2)NC(=O)[C@H](Cc2ccc(O)cc2)NC1=O)C(=O)N[C@H](C)C(=O)N[C@@H](CC(=O)O)C(=O)N[C@@H](CCC(=O)O)C(=O)N[C@@H](Cc1ccc(O)cc1)C(=O)N[C@H](C(=O)N[C@@H](CCCCNC(=O)CCc1cn(CCOCCOCCOCCOCCOCCOCCOCCOCCOCCOCCOCCOCCOCCOCCOCCOCCOCCOCCOCCOCCOCCOCCOCCOCCC(=O)N[C@@H](C)C(=O)N[C@@H](CCCCNC(=N)N)C(=O)N[C@@H](CC(=O)O)C(=O)N[C@H]2CSCCC(=O)N4CN5CN(C4)C(=O)CCSC[C@H](NC(=O)[C@H](CC(C)C)NC(=O)[C@@H]4CCCN4C(=O)[C@H](CC(N)=O)NC(=O)[C@H](C(C)C)NC(=O)[C@H](CC(C)C)NC(=O)[C@@H]4C[C@@H](O)CN4C2=O)C(=O)N[C@@H](CC(C)C)C(=O)N[C@@H](Cc2c[nH]cn2)C(=O)N2CCC[C@H]2C(=O)N[C@H](CC(=O)O)C(=O)N[C@@H](Cc2c[nH]c4ccccc24)C(=O)N[C@@H](CCCCNC(=N)N)C(=O)N[C@H](C(N)=O)CSCCC5=O)nn1)C(N)=O)CSCCC3=O [BCY18731] (I: A[hArg]DC[Hyp]LVNPLCLHP[dD]W[hArg]C-NH2 / II: Ac-CY[Cba]PDYLC[dA]DEYCK-NH2; linker I:4-I:11-I:18, II:1-II:8-II:13 via TATA; linker I:N-II:14 via X3; C-terminus assumed)",,"enhanced, dose-dependent effect on tumor cell killing"
